The list shows a part of the results. The data scatter; read single values as rough.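 Many melting curves are irregular; where none melted, Tm was taken as 64 °C.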
Compound: CCc1cnccc1C(=O)Nc1cc2c(cc1F)NC(=O)CC2
Test: melting temperature shift (DMSO Tm minus MBE1-treated Tm) in cellular thermal proteome profiling; higher = less thermal stabilization by MBE1 (negative = stabilized by MBE1)
Conditions: A375

Amino acid sequences for entries named in this document (tags omitted). A change or cut given only in a name is not applied to a line headed by its entry.
UniProt Q96IX5: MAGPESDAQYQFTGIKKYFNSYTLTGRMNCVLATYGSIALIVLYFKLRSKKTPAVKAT
UniProt Q96GD0: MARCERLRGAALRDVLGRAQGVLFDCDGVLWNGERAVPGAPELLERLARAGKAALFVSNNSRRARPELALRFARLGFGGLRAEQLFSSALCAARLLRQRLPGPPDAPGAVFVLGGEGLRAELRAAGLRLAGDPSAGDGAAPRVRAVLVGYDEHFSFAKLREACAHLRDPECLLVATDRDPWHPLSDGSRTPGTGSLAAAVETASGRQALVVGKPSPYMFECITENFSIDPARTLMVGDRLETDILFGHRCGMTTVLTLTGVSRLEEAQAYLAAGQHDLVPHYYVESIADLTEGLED
UniProt Q96T76: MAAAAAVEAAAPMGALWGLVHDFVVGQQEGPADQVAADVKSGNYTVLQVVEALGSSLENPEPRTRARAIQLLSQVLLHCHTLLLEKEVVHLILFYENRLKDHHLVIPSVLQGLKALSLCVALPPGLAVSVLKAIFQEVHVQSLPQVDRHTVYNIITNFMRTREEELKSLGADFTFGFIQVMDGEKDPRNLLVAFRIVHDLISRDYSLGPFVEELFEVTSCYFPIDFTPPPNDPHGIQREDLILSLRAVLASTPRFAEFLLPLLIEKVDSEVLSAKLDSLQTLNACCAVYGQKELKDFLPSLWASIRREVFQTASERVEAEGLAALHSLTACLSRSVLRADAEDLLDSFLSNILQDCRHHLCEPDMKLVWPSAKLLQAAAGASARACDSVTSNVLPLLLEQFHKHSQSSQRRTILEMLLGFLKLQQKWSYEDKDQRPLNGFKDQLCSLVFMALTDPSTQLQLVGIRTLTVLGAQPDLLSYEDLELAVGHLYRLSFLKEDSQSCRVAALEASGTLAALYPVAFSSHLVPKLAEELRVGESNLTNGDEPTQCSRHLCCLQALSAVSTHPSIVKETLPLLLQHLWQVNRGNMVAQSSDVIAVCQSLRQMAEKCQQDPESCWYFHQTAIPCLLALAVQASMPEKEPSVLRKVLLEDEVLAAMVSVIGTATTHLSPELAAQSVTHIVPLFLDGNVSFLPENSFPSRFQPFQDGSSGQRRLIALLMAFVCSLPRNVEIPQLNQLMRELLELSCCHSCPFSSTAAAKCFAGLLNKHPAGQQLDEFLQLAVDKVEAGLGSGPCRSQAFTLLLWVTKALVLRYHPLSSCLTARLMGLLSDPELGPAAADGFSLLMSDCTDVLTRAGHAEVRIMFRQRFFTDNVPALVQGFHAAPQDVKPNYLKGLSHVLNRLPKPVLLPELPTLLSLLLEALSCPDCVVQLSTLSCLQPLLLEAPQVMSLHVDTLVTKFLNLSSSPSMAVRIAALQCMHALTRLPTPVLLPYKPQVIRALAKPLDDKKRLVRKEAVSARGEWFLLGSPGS
UniProt Q96N11, whole entry: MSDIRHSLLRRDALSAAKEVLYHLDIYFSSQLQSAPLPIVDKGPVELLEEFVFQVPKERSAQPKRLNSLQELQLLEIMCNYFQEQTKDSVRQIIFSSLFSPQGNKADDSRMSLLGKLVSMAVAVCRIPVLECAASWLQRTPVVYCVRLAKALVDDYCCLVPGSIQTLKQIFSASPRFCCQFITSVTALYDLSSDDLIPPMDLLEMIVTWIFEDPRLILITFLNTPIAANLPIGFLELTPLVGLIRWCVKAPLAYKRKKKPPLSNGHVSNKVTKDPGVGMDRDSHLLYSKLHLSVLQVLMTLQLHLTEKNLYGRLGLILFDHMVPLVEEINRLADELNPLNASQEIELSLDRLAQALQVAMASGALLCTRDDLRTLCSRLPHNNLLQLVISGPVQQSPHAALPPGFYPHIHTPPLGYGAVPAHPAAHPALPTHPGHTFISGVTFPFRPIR
UniProt Q96HE9: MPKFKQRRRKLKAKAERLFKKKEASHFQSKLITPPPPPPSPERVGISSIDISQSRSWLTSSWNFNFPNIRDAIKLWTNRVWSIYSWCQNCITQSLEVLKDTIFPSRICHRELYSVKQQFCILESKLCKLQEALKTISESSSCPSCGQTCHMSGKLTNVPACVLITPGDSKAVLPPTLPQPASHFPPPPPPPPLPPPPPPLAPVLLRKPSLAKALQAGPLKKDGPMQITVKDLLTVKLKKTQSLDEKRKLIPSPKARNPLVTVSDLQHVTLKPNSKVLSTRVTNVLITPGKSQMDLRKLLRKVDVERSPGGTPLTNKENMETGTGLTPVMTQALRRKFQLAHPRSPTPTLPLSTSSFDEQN
UniProt Q96S59, whole entry: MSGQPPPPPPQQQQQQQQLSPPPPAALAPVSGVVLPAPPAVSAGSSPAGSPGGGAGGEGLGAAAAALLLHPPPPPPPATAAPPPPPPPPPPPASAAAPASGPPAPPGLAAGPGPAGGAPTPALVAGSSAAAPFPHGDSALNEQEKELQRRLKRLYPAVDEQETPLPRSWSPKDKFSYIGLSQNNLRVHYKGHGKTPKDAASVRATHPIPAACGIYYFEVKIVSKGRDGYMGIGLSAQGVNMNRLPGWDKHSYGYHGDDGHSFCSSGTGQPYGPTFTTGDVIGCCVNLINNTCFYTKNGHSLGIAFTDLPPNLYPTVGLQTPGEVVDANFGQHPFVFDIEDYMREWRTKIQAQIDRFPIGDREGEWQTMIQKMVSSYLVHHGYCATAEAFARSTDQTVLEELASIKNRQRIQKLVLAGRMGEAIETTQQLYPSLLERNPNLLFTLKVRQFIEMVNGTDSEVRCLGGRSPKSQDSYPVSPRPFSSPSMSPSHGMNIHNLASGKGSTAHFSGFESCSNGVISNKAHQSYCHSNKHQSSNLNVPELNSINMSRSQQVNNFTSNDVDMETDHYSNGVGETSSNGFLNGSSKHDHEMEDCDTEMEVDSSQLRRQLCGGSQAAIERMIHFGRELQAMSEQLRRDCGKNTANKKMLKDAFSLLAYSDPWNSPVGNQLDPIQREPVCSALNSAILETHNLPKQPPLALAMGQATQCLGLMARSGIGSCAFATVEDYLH
UniProt Q96RQ1: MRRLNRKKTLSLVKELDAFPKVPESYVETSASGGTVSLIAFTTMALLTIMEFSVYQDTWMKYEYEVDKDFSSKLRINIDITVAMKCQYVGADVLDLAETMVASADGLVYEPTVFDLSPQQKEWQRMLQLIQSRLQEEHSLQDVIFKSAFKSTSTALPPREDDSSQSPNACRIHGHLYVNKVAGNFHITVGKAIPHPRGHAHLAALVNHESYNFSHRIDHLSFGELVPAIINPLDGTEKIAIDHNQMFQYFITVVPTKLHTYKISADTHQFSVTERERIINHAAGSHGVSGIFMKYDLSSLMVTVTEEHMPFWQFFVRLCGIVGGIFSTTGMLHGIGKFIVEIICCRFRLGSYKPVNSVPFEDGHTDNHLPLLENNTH
UniProt Q96HR8: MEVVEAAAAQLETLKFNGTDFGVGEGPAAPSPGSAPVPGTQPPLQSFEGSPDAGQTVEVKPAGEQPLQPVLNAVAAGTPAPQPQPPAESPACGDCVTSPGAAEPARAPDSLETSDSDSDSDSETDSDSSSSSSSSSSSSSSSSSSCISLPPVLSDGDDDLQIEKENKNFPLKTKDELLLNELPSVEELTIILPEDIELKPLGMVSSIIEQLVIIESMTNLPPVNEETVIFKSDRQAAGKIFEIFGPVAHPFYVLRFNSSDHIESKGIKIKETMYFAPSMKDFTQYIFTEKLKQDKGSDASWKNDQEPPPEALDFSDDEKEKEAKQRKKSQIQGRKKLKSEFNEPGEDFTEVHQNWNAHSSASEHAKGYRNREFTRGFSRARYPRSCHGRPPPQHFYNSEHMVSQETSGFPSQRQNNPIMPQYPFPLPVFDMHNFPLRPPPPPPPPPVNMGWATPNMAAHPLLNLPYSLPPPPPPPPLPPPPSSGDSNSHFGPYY
UniProt Q96RR1: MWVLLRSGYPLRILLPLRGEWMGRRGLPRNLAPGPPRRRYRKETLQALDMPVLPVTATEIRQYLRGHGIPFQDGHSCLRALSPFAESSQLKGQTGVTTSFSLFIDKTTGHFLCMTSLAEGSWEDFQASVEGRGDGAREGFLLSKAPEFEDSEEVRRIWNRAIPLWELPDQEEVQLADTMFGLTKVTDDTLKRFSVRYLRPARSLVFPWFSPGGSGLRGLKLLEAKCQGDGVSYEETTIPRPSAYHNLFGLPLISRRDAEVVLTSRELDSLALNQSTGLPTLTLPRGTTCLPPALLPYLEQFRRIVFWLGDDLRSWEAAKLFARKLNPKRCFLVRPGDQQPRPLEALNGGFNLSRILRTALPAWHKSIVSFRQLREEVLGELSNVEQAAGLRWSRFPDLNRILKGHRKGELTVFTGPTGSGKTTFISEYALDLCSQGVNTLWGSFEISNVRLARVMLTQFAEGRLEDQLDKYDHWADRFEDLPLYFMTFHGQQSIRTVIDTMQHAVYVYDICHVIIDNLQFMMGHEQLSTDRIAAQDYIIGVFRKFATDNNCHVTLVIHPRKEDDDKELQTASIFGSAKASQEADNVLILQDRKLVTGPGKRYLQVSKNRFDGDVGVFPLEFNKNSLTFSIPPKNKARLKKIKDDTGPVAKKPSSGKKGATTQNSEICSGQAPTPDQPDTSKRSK
UniProt Q96EU7: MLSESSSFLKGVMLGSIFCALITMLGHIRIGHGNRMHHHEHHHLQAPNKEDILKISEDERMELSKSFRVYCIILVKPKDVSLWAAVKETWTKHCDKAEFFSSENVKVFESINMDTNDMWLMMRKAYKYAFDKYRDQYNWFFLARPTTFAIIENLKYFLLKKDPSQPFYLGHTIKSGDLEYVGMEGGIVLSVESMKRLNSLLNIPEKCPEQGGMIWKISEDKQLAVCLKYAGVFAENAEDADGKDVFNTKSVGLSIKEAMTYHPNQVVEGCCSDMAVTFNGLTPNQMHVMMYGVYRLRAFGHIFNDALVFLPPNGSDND
UniProt Q96HS1, whole entry: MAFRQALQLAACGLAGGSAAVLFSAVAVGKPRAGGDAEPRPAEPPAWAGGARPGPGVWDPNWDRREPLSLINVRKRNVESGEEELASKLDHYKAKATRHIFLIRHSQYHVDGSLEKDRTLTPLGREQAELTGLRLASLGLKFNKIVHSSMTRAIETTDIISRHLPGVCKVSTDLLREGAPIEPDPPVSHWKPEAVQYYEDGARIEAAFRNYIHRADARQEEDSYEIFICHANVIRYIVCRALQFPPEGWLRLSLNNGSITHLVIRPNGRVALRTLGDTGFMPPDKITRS
UniProt Q96I24: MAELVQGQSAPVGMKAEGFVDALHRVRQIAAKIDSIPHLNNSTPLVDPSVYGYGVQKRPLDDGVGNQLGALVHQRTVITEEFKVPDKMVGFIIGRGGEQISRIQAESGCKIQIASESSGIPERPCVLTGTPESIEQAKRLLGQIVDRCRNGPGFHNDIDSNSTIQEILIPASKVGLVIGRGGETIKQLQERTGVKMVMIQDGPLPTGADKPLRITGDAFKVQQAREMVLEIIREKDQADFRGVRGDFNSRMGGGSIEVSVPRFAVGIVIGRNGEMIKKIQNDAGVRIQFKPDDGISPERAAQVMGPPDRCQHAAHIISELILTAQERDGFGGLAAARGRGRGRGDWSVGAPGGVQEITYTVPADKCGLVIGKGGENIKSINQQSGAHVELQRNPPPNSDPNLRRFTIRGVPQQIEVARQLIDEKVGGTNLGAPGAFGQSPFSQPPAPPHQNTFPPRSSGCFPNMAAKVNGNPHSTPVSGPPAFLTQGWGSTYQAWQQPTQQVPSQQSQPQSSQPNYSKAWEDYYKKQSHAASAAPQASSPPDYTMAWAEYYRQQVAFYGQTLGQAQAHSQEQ
UniProt Q96FW1, whole entry: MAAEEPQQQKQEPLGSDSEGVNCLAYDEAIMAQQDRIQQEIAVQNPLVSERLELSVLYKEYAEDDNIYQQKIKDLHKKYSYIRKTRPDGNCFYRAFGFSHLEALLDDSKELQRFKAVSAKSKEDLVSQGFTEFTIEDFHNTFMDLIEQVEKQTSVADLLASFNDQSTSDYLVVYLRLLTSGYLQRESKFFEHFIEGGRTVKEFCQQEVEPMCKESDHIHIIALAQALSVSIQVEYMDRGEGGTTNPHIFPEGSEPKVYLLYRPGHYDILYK
UniProt Q96S55: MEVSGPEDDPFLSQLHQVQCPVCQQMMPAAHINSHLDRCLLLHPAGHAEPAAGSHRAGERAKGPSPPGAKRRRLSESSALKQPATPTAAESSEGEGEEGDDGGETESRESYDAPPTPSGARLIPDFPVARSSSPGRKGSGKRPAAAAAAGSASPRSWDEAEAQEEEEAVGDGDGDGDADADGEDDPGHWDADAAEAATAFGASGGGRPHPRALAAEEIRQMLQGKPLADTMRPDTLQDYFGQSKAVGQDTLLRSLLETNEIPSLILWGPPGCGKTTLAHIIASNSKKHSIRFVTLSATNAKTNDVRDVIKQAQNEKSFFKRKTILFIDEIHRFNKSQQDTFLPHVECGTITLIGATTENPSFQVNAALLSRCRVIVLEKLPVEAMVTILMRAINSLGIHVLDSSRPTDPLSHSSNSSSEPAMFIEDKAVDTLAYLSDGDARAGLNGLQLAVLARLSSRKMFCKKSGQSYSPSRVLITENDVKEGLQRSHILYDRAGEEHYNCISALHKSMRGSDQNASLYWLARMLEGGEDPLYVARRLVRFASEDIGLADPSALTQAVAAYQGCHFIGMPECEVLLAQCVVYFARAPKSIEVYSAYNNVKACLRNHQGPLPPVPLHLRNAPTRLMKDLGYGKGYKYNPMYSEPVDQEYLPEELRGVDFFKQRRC

| Target | melting temperature shift (MBE1 concentration: 100 nM) | melting temperature shift (MBE1 concentration: 1 uM) |
| --- | --- | --- |
| COG8 (UniProt Q96MW5) | -0.259 °C | -0.0141 °C |
| MASTL (UniProt Q96GX5) | -1.62 °C | -1.37 °C |
| DDX11 (UniProt Q96FC9) | -2.61 °C | 0.501 °C |
| APIP (UniProt Q96GX9) | -1.83 °C | -0.673 °C |
| DDX27 (UniProt Q96GQ7) | 1.41 °C | 0.232 °C |
| UniProt Q96N06 | -2.41 °C | -4.13 °C |
| TCF12 (UniProt Q99081) | -0.404 °C | -0.583 °C |
| USMG5 (UniProt Q96IX5) | -1.44 °C | -3.39 °C |
| PDXP (UniProt Q96GD0) |  | -2.31 °C |
| UniProt Q96NY9 | -0.243 °C | 0.211 °C |
| MMS19 (UniProt Q96T76) | -0.141 °C | 0.122 °C |
| UniProt Q96K80 | 0.336 °C | -0.745 °C |
| REEP6 (UniProt Q96HR9) |  | 4.56 °C |
| DUS3L (UniProt Q96G46) | -1.11 °C | -1.26 °C |
| PDLIM5 (UniProt Q96HC4) | -0.548 °C | 0.287 °C |
| PASK (UniProt Q96RG2) | 0.678 °C | 0.366 °C |
| UniProt Q96Q89 | -7.86 °C | -0.0128 °C |
| UniProt Q96N11 | 0.0939 °C | -3.3 °C |
| FBXL20 (UniProt Q96IG2) | 0.116 °C |  |
| COG3 (UniProt Q96JB2) | -0.278 °C | -0.296 °C |
| GFM1 (UniProt Q96RP9) | 0.574 °C | 0.299 °C |
| UniProt Q96G61 |  | -0.879 °C |
| TXNDC15 (UniProt Q96J42) | -1.29 °C | 0.556 °C |
| DOCK6 (UniProt Q96HP0) | -1.25 °C | -0.102 °C |

| Target | melting temperature shift (MBE1 concentration: 100 nM) | melting temperature shift (MBE1 concentration: 1 uM) |
| --- | --- | --- |
| EDC3 (UniProt Q96F86) | 0.446 °C | 0.311 °C |
| CCDC43 (UniProt Q96MW1) | -0.238 °C | 1.29 °C |
| PBK (UniProt Q96KB5) | -0.527 °C | -0.0706 °C |
| VPS39 (UniProt Q96JC1) | 0.677 °C | 0 °C |
| SUCLG2 (UniProt Q96I99) | -0.214 °C | 0.128 °C |
| UniProt Q96HE9 | 1.04 °C | 0.574 °C |
| PSMD1 (UniProt Q99460) | -0.701 °C | 1.14 °C |
| RSRC1 (UniProt Q96IZ7) |  | 0.569 °C |
| RBM14 (UniProt Q96PK6) | -0.122 °C | -0.0932 °C |
| UniProt Q96JI7 | 3.33 °C | 2.96 °C |
| UniProt Q96EP1 |  | -1.14 °C |
| UniProt Q96GV9 |  | -4.41 °C |
| ZNF668 (UniProt Q96K58) |  | -0.116 °C |
| UniProt Q96QE3 | -0.0192 °C | -0.711 °C |
| VPS50 (UniProt Q96JG6) | 0.0183 °C | -0.44 °C |
| UniProt Q96N64 | 1.94 °C | 2.09 °C |
| MRPL48 (UniProt Q96GC5) | 1.2 °C | -1.13 °C |
| UniProt Q96NB1 | -2.32 °C | -3.43 °C |
| RANBP9 (UniProt Q96S59) | 0.684 °C | 0.153 °C |
| METTL2A (UniProt Q96IZ6) | -0.649 °C | 0.0141 °C |
| ZNF830 (UniProt Q96NB3) | -1.16 °C | -3.29 °C |
| PRRC1 (UniProt Q96M27) | -3.13 °C | -2.92 °C |
| UniProt Q96S15 | -0.55 °C | 0.416 °C |
| CLCC1 (UniProt Q96S66) | -2.88 °C | -2.16 °C |

| Target | melting temperature shift (MBE1 concentration: 100 nM) | melting temperature shift (MBE1 concentration: 1 uM) |
| --- | --- | --- |
| ERGIC2 (UniProt Q96RQ1) | -1.37 °C | 0.228 °C |
| SMC6 (UniProt Q96SB8) | 0.757 °C | 0.318 °C |
| SGTB (UniProt Q96EQ0) | 0.0469 °C | -0.0716 °C |
| UniProt Q96EM0 | -0.912 °C | 0.822 °C |
| UniProt Q96N46 | -0.378 °C | -0.0822 °C |
| NEK1 (UniProt Q96PY6) | -0.556 °C | -0.763 °C |
| TOE1 (UniProt Q96GM8) | -2.13 °C | -0.121 °C |
| XPO6 (UniProt Q96QU8) | -0.136 °C | 0.306 °C |
| UniProt Q96T23 | -1.86 °C | -0.679 °C |
| UniProt Q96L91 | -4.81 °C | -5.03 °C |
| UniProt Q99418 | -2.01 °C | -0.211 °C |
| CYFIP2 (UniProt Q96F07) | 0.47 °C | 0.904 °C |
| TUBGCP6 (UniProt Q96RT7) | 1.53 °C | -0.678 °C |
| NAF1 (UniProt Q96HR8) | -1.56 °C | 0.055 °C |
| EXOC2 (UniProt Q96KP1) | -0.245 °C | -0.198 °C |
| INPP4A (UniProt Q96PE3) | -0.228 °C | 0.236 °C |
| MRPL53 (UniProt Q96EL3) | -1.38 °C | 4.11 °C |
| UniProt Q99504 | -0.275 °C | -0.73 °C |
| CNDP2 (UniProt Q96KP4) | -2.97 °C | -0.88 °C |
| AGAP3 (UniProt Q96P47) | -0.668 °C | -0.913 °C |
| DAZAP1 (UniProt Q96EP5) | -0.496 °C | 0.789 °C |
| NEU1 (UniProt Q99519) | -0.721 °C | -1.53 °C |
| OXNAD1 (UniProt Q96HP4) | 1.92 °C | 2.75 °C |
| VMP1 (UniProt Q96GC9) | -0.721 °C | -1.42 °C |

| Target | melting temperature shift (MBE1 concentration: 100 nM) | melting temperature shift (MBE1 concentration: 1 uM) |
| --- | --- | --- |
| PIGS (UniProt Q96S52) | 0.423 °C | 0.376 °C |
| TP53RK (UniProt Q96S44) | 0.154 °C | 0.14 °C |
| UBL7 (UniProt Q96S82) | 0.403 °C | 0.104 °C |
| SAAL1 (UniProt Q96ER3) | 1.73 °C | 0.446 °C |
| STRBP (UniProt Q96SI9) | -0.635 °C | -0.159 °C |
| DHTKD1 (UniProt Q96HY7) | 1.41 °C | 0.202 °C |
| TRIM11 (UniProt Q96F44) | -0.555 °C | -0.739 °C |
| USP47 (UniProt Q96K76) | -0.654 °C | -0.833 °C |
| PEO1 (UniProt Q96RR1) | 0.311 °C | -0.0916 °C |
| C1GALT1C1 (UniProt Q96EU7) | -0.469 °C | -0.101 °C |
| CRBN (UniProt Q96SW2) | -0.744 °C | 1.15 °C |
| CDK5RAP3 (UniProt Q96JB5) | 1.17 °C | 0.318 °C |
| PGAM5 (UniProt Q96HS1) | -0.744 °C | 0.315 °C |
| USP28 (UniProt Q96RU2) | -0.423 °C | -0.589 °C |
| SDF2 (UniProt Q99470) | -1.36 °C | 0.305 °C |
| CCDC115 (UniProt Q96NT0) | -1.39 °C | 0.643 °C |
| CDK5RAP1 (UniProt Q96SZ6) | -1.72 °C | -0.0128 °C |
| UniProt Q99417 | 0.299 °C | -2.36 °C |
| FUBP3 (UniProt Q96I24) | -0.318 °C | -0.65 °C |
| FNBP1 (UniProt Q96RU3) | -0.24 °C | -0.151 °C |
| C16ORF58 (UniProt Q96GQ5) | -0.268 °C | -0.174 °C |
| UniProt Q96QZ7 | 0.849 °C | -0.0611 °C |
| OTUB1 (UniProt Q96FW1) | -0.648 °C | 0.0855 °C |
| PARK7 (UniProt Q99497) | -1.48 °C | -0.837 °C |

Seven entries from above, bar-delimited.
Target | melting temperature shift (MBE1 concentration: 100 nM) | melting temperature shift (MBE1 concentration: 1 uM)
PEO1 (UniProt Q96RR1) | 0.311 °C | -0.0916 °C
C1GALT1C1 (UniProt Q96EU7) | -0.469 °C | -0.101 °C
CRBN (UniProt Q96SW2) | -0.744 °C | 1.15 °C
CDK5RAP3 (UniProt Q96JB5) | 1.17 °C | 0.318 °C
PGAM5 (UniProt Q96HS1) | -0.744 °C | 0.315 °C
USP28 (UniProt Q96RU2) | -0.423 °C | -0.589 °C
SDF2 (UniProt Q99470) | -1.36 °C | 0.305 °C

Additional records.

| Target | melting temperature shift (MBE1 concentration: 100 nM) | melting temperature shift (MBE1 concentration: 1 uM) |
| --- | --- | --- |
| UniProt Q96J92 | 0.055 °C | 0.495 °C |
| UniProt Q96L58 | -1.03 °C | -0.389 °C |
| CDK5RAP2 (UniProt Q96SN8) | -0.0518 °C | -0.72 °C |
| UniProt Q96T58 | -1.36 °C | -0.468 °C |
| TRNT1 (UniProt Q96Q11) | 0.446 °C | -0.354 °C |
| SMG1 (UniProt Q96Q15) | -0.127 °C | 0 °C |
| UniProt Q96L93 | -0.607 °C | 0.282 °C |
| SEC62 (UniProt Q99442) | -2.31 °C | -2.05 °C |
| CHAMP1 (UniProt Q96JM3) | -0.447 °C | -0.0518 °C |
| RNF2 (UniProt Q99496) | -0.933 °C | -0.372 °C |
| UniProt Q96HR3 | 0.83 °C | 0.525 °C |
| WRNIP1 (UniProt Q96S55) | -0.359 °C | -0.416 °C |
| SCYL1 (UniProt Q96KG9) | 0.916 °C | 0.226 °C |
| AJUBA (UniProt Q96IF1) | -0.983 °C | -0.688 °C |
| PAWR (UniProt Q96IZ0) | -2.38 °C | -2.38 °C |
| SIPA1 (UniProt Q96FS4) | 1.14 °C | 0.293 °C |
| HMCES (UniProt Q96FZ2) | -1.23 °C | -0.762 °C |
| CAMKK2 (UniProt Q96RR4) | -0.671 °C | 0.449 °C |
| NRBF2 (UniProt Q96F24) | 1.1 °C | 0.409 °C |
| VAT1 (UniProt Q99536) | -1.15 °C | -0.91 °C |
| UniProt Q96PE7 | -3.95 °C | -2.69 °C |
| OTUD5 (UniProt Q96G74) | -0.482 °C | -0.0794 °C |
| FMNL2 (UniProt Q96PY5) | 1.62 °C | 0.775 °C |
| FBXL18 (UniProt Q96ME1) | -0.154 °C | -0.21 °C |
